From US10266524B2, “Process for the preparation of thietane derivatives” (SYNGENTA PARTICIPATIONS AG, priority 2011, dated 2019)
Some entries share one result that the patent states for a list of compounds. For at least one compound, name, drawing or mass did not settle the structure.

Columns and labels:
Type in all cases: in vivo
Spodoptera littoralis = Spodoptera littoralis (Egyptian cotton leafworm) leaf disc spray test; details: 200 ppm spray on cotton leaf discs, L1 larvae, mortality, feeding behavior, growth regulation 3 days after treatment
Heliothis virescens = Heliothis virescens (tobacco budworm) egg/larva test on artificial diet; details: 200 ppm (concentration in well 18 ppm), eggs 0-24 h old on artificial diet, 4 days; egg mortality, larval mortality, growth regulation
Plutella xylostella = Plutella xylostella (diamond back moth) larva test on artificial diet; details: 200 ppm (concentration in well 18 ppm), L2 larvae, 6 days, larval mortality, growth regulation
Diabrotica balteata = Diabrotica balteata (corn root worm) larva test on artificial diet; details: 200 ppm (concentration in well 18 ppm), L2 larvae, 5 days, larval mortality, growth regulation
Thrips tabaci = Thrips tabaci (onion thrips) sunflower leaf disc spray test; details: 200 ppm spray on sunflower leaf discs, mixed-age population, 7 days; mortality
Tetranychus urticae = Tetranychus urticae (two-spotted spider mite) bean leaf disc spray test; details: 200 ppm spray on bean leaf discs, mixed-age mite populations, 8 days; egg, larval and adult mortality

Cc1cc(C2=NOC(c3cc(Cl)cc(Cl)c3)(C(F)(F)F)C2)ccc1C(=O)NCCC1CSC1 (centres unmarked) [Compound A131]
at least 80%: control of Spodoptera littoralis (Spodoptera littoralis) | control of Heliothis virescens (Heliothis virescens) | control of Plutella xylostella (Plutella xylostella) | control of Diabrotica balteata (Diabrotica balteata) | control of Thrips tabaci (Thrips tabaci) | control of Tetranychus urticae (Tetranychus urticae)

Cc1cc(C2=NOC(c3cc(Cl)cc(Cl)c3)(C(F)(F)F)C2)ccc1C(=O)NCCC1CS(=O)(=O)C1 (centres unmarked) [Compound A133]
at least 80%: control of Spodoptera littoralis (Spodoptera littoralis) | control of Heliothis virescens (Heliothis virescens) | control of Plutella xylostella (Plutella xylostella) | control of Diabrotica balteata (Diabrotica balteata) | control of Thrips tabaci (Thrips tabaci) | control of Tetranychus urticae (Tetranychus urticae)

Cc1cc(C2=NOC(c3cc(Cl)cc(Cl)c3)(C(F)(F)F)C2)ccc1C(=O)NCC1CCS1(=O)=O (centres unmarked) [Compound A098]
at least 80%: control of Spodoptera littoralis (Spodoptera littoralis) | control of Heliothis virescens (Heliothis virescens) | control of Plutella xylostella (Plutella xylostella) | control of Diabrotica balteata (Diabrotica balteata) | control of Thrips tabaci (Thrips tabaci) | control of Tetranychus urticae (Tetranychus urticae)

Cc1cc(C2=NCC(c3cc(Cl)c(Cl)c(Cl)c3)(C(F)(F)F)C2)ccc1C(=O)NCC1CCS1(=O)=O (centres unmarked) [Compound E10, N-(1,1-Dioxo-1-thietan-2-ylmethyl)-2-methyl-4-[4-(3,4,5-trichloro-phenyl)-4-trifluoromethyl-4,5-dihydro-3H-pyrrol-2-yl]-benzamide]
at least 80%: control of Spodoptera littoralis (Spodoptera littoralis) | control of Heliothis virescens (Heliothis virescens) | control of Plutella xylostella (Plutella xylostella) | control of Diabrotica balteata (Diabrotica balteata) | control of Thrips tabaci (Thrips tabaci) | control of Tetranychus urticae (Tetranychus urticae)

Cc1cc(C2=NCC(c3cc(Cl)c(Cl)c(Cl)c3)(C(F)(F)F)C2)ccc1C(=O)NCC1CS(=O)(=O)C1 (centres unmarked) [Compound E14, N-(1,1-Dioxo-1-thietan-3-ylmethyl)-2-methyl-4-[4-(3,4,5-trichloro-phenyl)-4-trifluoromethyl-4,5-dihydro-3H-pyrrol-2-yl]-benzamide]
at least 80%: control of Spodoptera littoralis (Spodoptera littoralis) | control of Heliothis virescens (Heliothis virescens) | control of Plutella xylostella (Plutella xylostella) | control of Diabrotica balteata (Diabrotica balteata) | control of Thrips tabaci (Thrips tabaci) | control of Tetranychus urticae (Tetranychus urticae)

Cc1cc(C2=NOC(c3cc(Cl)cc(Cl)c3)(C(F)(F)F)C2)ccc1C(=O)NCC1C[S+]([O-])C1 (centres unmarked) [Compound A192]
at least 80%: control of Spodoptera littoralis (Spodoptera littoralis) | control of Heliothis virescens (Heliothis virescens) | control of Plutella xylostella (Plutella xylostella) | control of Diabrotica balteata (Diabrotica balteata) | control of Thrips tabaci (Thrips tabaci) | control of Tetranychus urticae (Tetranychus urticae)

Cc1cc(C2=NOC(c3cc(Cl)cc(Cl)c3)(C(F)(F)F)C2)ccc1C(=O)NCC1CC[S+]1[O-] (centres unmarked) [Compound A097]
at least 80%: control of Spodoptera littoralis (Spodoptera littoralis) | control of Heliothis virescens (Heliothis virescens) | control of Plutella xylostella (Plutella xylostella) | control of Diabrotica balteata (Diabrotica balteata) | control of Thrips tabaci (Thrips tabaci) | control of Tetranychus urticae (Tetranychus urticae)

Cc1cc(C2=NOC(c3cc(Cl)cc(Cl)c3)(C(F)(F)F)C2)ccc1C(=O)NCC1CCS1 (centres unmarked) [Compound A096]
at least 80%: control of Spodoptera littoralis (Spodoptera littoralis) | control of Heliothis virescens (Heliothis virescens) | control of Plutella xylostella (Plutella xylostella) | control of Diabrotica balteata (Diabrotica balteata) | control of Thrips tabaci (Thrips tabaci) | control of Tetranychus urticae (Tetranychus urticae)

Cc1cc(C2=NOC(c3cc(Cl)cc(Cl)c3)(C(F)(F)F)C2)ccc1C(=O)NCC1CS(=O)(=O)C1 (stereo in doubt) [Compound H1, 4-[(5S)-5-(3,5-dichlorophenyl)-5-(trifluoromethyl)-4H-isoxazol-3-yl]-2-methyl-N-(1,1-dioxothietan-3-ylmethyl)benzamide]
at least 80%: control of Heliothis virescens (Heliothis virescens) | control of Plutella xylostella (Plutella xylostella) | control of Diabrotica balteata (Diabrotica balteata) | control of Thrips tabaci (Thrips tabaci) | control of Tetranychus urticae (Tetranychus urticae)

Cc1cc(C2=NCC(c3cc(Cl)cc(Cl)c3)(C(F)(F)F)C2)ccc1C(=O)NCC1CS(=O)(=O)C1 (centres unmarked) [Compound E3, 4-[4-(3,5-Dichloro-phenyl)-4-trifluoromethyl-4,5-dihydro-3H-pyrrol-2-yl]-N-(1,1-dioxo-1-thietan-3-ylmethyl)-2-methyl-benzamide]
at least 80%: control of Spodoptera littoralis (Spodoptera littoralis) | control of Heliothis virescens (Heliothis virescens) | control of Plutella xylostella (Plutella xylostella) | control of Diabrotica balteata (Diabrotica balteata) | control of Thrips tabaci (Thrips tabaci) | control of Tetranychus urticae (Tetranychus urticae)

Cc1cc(C2=NOC(c3cc(Cl)cc(Cl)c3)(C(F)(F)F)C2)ccc1C(=O)NCCC1C[S+]([O-])C1 (centres unmarked) [Compound A178]
at least 80%: control of Spodoptera littoralis (Spodoptera littoralis) | control of Heliothis virescens (Heliothis virescens) | control of Plutella xylostella (Plutella xylostella) | control of Diabrotica balteata (Diabrotica balteata) | control of Thrips tabaci (Thrips tabaci) | control of Tetranychus urticae (Tetranychus urticae)

COC1(CCNC(=O)c2ccc(C3=NOC(c4cc(Cl)cc(Cl)c4)(C(F)(F)F)C3)cc2C)CSC1 (centres unmarked) [Compound A184]
at least 80%: control of Spodoptera littoralis (Spodoptera littoralis) | control of Heliothis virescens (Heliothis virescens) | control of Plutella xylostella (Plutella xylostella) | control of Diabrotica balteata (Diabrotica balteata) | control of Thrips tabaci (Thrips tabaci) | control of Tetranychus urticae (Tetranychus urticae)
